{"source": "PubChem BioAssay AID1259425, University of Nebraska Medical Center – 2018", "screen": "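Find knockdowns that reproduce the gene expression pattern seen when KSR1 is lost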 (primary screen)", "cell system": "HCT116 human colon cancer cells", "reagents": "siRNA pool against human genes, 50 nM siRNA", "read-out": "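mRNA of six signature genes measured together by branched-DNA assay after 50 nM siRNA pool, blank removed, divided by geometric mean of two housekeeping genes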", "direction": "BNIP3L mRNA: higher = more BNIP3L transcript after knockdown; NDRG1 mRNA: higher = more NDRG1 transcript after knockdown", "note": "This is an unselected part of about 14,000 reagents tested. Further read-outs or replicates are left out here. Not stated in the record: the time to read-out."}
{"Target gene": "STAU2", "PubChem SID": "SID363998815", "BNIP3L mRNA, set 1": 0.121, "NDRG1 mRNA, set 1": 0.524}
{"Target gene": "CETN1", "PubChem SID": "SID363995076", "BNIP3L mRNA, set 1": 0.141, "NDRG1 mRNA, set 1": 0.48}
{"Target gene": "TMEM14A", "PubChem SID": "SID363998577", "BNIP3L mRNA, set 1": 0.133, "NDRG1 mRNA, set 1": 0.397}
{"Target gene": "SYCP1", "PubChem SID": "SID363994312", "BNIP3L mRNA, set 1": 0.131, "NDRG1 mRNA, set 1": 0.106}
{"Target gene": "TULP2", "PubChem SID": "SID363994439", "BNIP3L mRNA, set 1": 0.121, "NDRG1 mRNA, set 1": 0.193}
{"Target gene": "TRIM37", "PubChem SID": "SID363999403", "BNIP3L mRNA, set 1": 0.0714, "NDRG1 mRNA, set 1": 0.1}
{"Target gene": "LONP2", "PubChem SID": "SID364003667", "BNIP3L mRNA, set 1": 0.0626, "NDRG1 mRNA, set 1": 0.146}
{"Target gene": "PCDH10", "PubChem SID": "SID364001847", "BNIP3L mRNA, set 1": 0.11, "NDRG1 mRNA, set 1": 0.173}
{"Target gene": "ADGRG7", "PubChem SID": "SID364004172", "BNIP3L mRNA, set 1": 0.355, "NDRG1 mRNA, set 1": 0.484}

The list goes on (2 carried over from the part before).
{"Target gene": "PCDH10", "PubChem SID": "SID364001847", "BNIP3L mRNA, set 1": 0.11, "NDRG1 mRNA, set 1": 0.173}
{"Target gene": "ADGRG7", "PubChem SID": "SID364004172", "BNIP3L mRNA, set 1": 0.355, "NDRG1 mRNA, set 1": 0.484}
{"Target gene": "CHRM2", "PubChem SID": "SID363992034", "BNIP3L mRNA, set 1": 0.109, "NDRG1 mRNA, set 1": 0.301}
{"Target gene": "FMO2", "PubChem SID": "SID363992722", "BNIP3L mRNA, set 1": 0.102, "NDRG1 mRNA, set 1": 0.142}
{"Target gene": "COQ4", "PubChem SID": "SID363999813", "BNIP3L mRNA, set 1": 0.129, "NDRG1 mRNA, set 1": 0.348}
{"Target gene": "RRP15", "PubChem SID": "SID363999827", "BNIP3L mRNA, set 1": 0.156, "NDRG1 mRNA, set 1": 0.564}
{"Target gene": "NR1H2", "PubChem SID": "SID363997835", "BNIP3L mRNA, set 1": 0.0962, "NDRG1 mRNA, set 1": 0.137}
{"Target gene": "SMCO4", "PubChem SID": "SID364001532", "BNIP3L mRNA, set 1": 0.167, "NDRG1 mRNA, set 1": 0.577}
{"Target gene": "C2CD2L", "PubChem SID": "SID363999119", "BNIP3L mRNA, set 1": 0.0738, "NDRG1 mRNA, set 1": 0.346}
{"Target gene": "SSPOP", "PubChem SID": "SID364005585", "BNIP3L mRNA, set 1": 0.288, "NDRG1 mRNA, set 1": 0.866}
{"Target gene": "ACTB", "PubChem SID": "SID363992398", "BNIP3L mRNA, set 1": 0.0942, "NDRG1 mRNA, set 1": 0.363}
{"Target gene": "DNM1", "PubChem SID": "SID363995391", "BNIP3L mRNA, set 1": 0.127, "NDRG1 mRNA, set 1": 0.231}
